Test results taken from paper PMC2682659.
No constants are given. Whether binding was seen depends on the method and setting. Binding seen in cells or lysates may run through a third protein. Some entries that bind do so weakly or less than the wild type. Each block holds one substance with its values, some of them ahead of it.

Chains of the proteins cited; added tags and fusions are not shown. Lines headed by an entry give the natural chain unless they say otherwise; changes in a name come on top. Residues count along the entry.
UniProt Q61473: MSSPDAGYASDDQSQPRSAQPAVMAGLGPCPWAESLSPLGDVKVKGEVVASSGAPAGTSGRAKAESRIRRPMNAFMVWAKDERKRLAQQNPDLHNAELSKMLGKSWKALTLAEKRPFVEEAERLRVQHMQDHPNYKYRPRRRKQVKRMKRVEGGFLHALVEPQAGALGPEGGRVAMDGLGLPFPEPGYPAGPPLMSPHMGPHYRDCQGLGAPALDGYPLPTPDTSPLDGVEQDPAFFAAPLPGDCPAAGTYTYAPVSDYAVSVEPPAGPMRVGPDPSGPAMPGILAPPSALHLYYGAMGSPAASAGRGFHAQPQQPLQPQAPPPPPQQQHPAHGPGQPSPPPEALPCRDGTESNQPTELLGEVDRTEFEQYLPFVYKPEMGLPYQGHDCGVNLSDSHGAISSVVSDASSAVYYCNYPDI
Sox17-V5 N-terminal deletion (129–419): residues 129-419 of Q61473
UniProt P84022: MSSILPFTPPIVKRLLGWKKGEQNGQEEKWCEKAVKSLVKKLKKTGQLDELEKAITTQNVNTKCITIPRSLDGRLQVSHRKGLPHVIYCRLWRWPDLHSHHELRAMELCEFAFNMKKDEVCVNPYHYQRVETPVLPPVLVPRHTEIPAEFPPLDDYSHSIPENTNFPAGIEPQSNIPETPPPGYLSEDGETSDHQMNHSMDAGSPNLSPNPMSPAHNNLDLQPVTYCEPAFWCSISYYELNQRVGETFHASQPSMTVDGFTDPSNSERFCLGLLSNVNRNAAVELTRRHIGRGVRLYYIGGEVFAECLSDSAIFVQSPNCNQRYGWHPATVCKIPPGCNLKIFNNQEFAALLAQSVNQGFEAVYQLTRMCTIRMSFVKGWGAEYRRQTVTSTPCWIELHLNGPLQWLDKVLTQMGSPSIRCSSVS

Columns and labels:
[1] = biological target: Sox17 (co-immunoprecipitation, data not shown) (UniProt Q61473); experiment: co-IP; co-immunoprecipitation assays; data not shown; no methods given
[2] = biological target: GST-Smad3 (pGEX-human Smad3) (human) (UniProt P84022); experiment: pull-down; 4–8 µg GST-Smad3 on glutathione sepharose beads incubated with precleared MLE-15 lysates expressing Sox17-V5 constructs; multiple binding stringencies; washes 20 mM Tris pH 8.0, 1 mM EDTA, 300–500 mM NaCl, 0.5% NP-40; anti-V5 immunoblot; only the target purified
[3] = biological target: GST-Sox17 fusion protein (pGEX-mouse Sox17) (mouse) (UniProt Q61473); experiment: pull-down; GST-Sox17 pull-down of Smad3 deletion constructs at low stringency binding conditions; data not shown; only the target purified
[4] = biological target: GST-Sox17 fusion protein (pGEX-mouse Sox17) (mouse) (UniProt Q61473); experiment: pull-down; 4–8 µg GST-Sox17 on glutathione sepharose beads incubated with precleared MLE-15 lysates expressing FLAG-Smad3 constructs; higher stringency conditions; washes 20 mM Tris pH 8.0, 1 mM EDTA, 300–500 mM NaCl, 0.5% NP-40; anti-FLAG immunoblot; only the target purified

Substance: Sox17-V5 DNA binding domain point mutant (M76A) (from UniProt Q61473 1-419)
binding [2]: binds

Substance: Sox17-V5 C-terminal deletion (1–359) (from UniProt Q61473 1-359) (domain or fragment)
binding [2]: binds

Substance: Sox17-V5, wild type Sox17 (1–419) (from UniProt Q61473 1-419)
binding [2]: binds

Substance: FLAG-Smad3 (1–425) (from UniProt P84022 1-425)
binding [4]: binds

Substance: FLAG-Smad3 (146–425) (from UniProt P84022 146-425) (domain or fragment)
binding [4]: binds

More lines, now with the values ahead:

binding [1]: binds
Substance: Smad3 (co-immunoprecipitation, data not shown) (from UniProt P84022 1-425)

binding [3]: binds
Substance: FLAG-Smad3 (1–145) (from UniProt P84022 1-145) (domain or fragment)

binding [3]: binds
Substance: FLAG-Smad3 (220–425) (from UniProt P84022 220-425) (domain or fragment)

binding [2]: binds
Substance: Sox17-V5 N-terminal deletion (129–419) (from UniProt Q61473-1 129-419) (domain or fragment)
